Results reported in US20100069480A1, “METHODS AND COMPOSITIONS FOR THE TREATMENT OF CANCER” (Bionovo, Inc. A Delaware Corporation, priority 2008, published 2010).
At least one compound was matched to its structure with a doubt left.

System: MDA MB 231 and SKBr3 breast cancer cells
Assay: DNA damage, comet assay
Assay type: cell-based, human
Details: Table 11
Experimental: The following parameters were examined: • 1. Induction of the loss of the mitochondrial transmembrane potential (MTP). […] Induction of reactive oxygen species (ROS). Induced fluorescence from the cell permeable indicators of ROS such as dihydroethidium (specific for superoxide) (FIG. 2), CM-H2DCFDA (most types of ROS) (FIG. 1) and MitoSOX (mitochondrially derived superoxide) (FIG. 3) was studied using a fluorescent plate reader and FACS. • 3. Compounds were also tested for the potential cellular sources of ROS induced using either specific indicators for ROS of mitochondrial origin, and/or specific inhibitors of ROS production by known sources such as mitochondria, ubiquinone oxidoreductase NQO (mitochondrial complex I) and NADPH oxidases. • 4. Compounds were tested for induction of DNA damage using test known as comet assay that allows detection of DNA damage in individual cells. (FIG. 4) • 5. The induction of death in cells treated with the compounds was examined using propidium iodide test for cell permeability followed by analysis on FACS. • 6. […] Induced fluorescence from the cell permeable indicators of ROS such as dihydroethidium (specific for superoxide) (FIG. 2), CM-H2DCFDA (most types of ROS) (FIG. 1) and MitoSOX (mitochondrially derived superoxide) (FIG. 3) was studied using a fluorescent plate reader and FACS. • 3. […]

For O=c1cc(-c2ccc(O)cc2)oc2cc(O)cc(O)c12 [cmpd 4], which DNA damage is on record?
The DNA damage was “−”.
